For five molecules, binding results are on record in publication PMC10689503, “CaMKK2 and CHK1 phosphorylate human STN1 in response to replication stress to protect stalled forks from aberrant resection”.

The chains behind the UniProt entries cited, without tags or fusion partners.
UniProt Q06609: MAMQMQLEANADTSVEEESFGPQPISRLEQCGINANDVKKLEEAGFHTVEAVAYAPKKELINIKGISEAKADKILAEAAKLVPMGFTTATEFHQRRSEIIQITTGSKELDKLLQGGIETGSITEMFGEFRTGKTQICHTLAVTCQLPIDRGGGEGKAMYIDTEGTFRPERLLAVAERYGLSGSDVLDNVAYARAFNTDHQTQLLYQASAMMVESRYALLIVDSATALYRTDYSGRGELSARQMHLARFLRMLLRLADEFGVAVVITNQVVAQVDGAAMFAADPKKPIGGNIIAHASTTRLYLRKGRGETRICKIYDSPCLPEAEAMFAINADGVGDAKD

Results are given in words; binding and its absence hold for the method and conditions named. For part of these data: In cells and extracts the contact can be indirect. Some results given as binding are weak or reduced against the parent protein; the word gives no strength. Sequences can lack the tags named with a protein.

Assay [1] concerns the target T1, Myc-S96A-STN1 (human) (UniProt Q9H668).
T1 sequence: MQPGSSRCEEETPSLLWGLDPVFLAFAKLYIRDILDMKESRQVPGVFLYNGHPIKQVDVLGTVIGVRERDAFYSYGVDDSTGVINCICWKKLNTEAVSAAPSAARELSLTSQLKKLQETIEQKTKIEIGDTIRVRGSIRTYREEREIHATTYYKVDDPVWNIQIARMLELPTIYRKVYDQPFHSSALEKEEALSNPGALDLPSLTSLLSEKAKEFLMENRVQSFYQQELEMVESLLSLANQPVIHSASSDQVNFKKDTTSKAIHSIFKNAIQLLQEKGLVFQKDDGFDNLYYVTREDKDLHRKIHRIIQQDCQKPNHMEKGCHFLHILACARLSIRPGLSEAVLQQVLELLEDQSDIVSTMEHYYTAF
As to the kind of experiment: co-IP; HEK293T co-transfected with Flag-CTC1, HA-TEN1 and Myc-WT-STN1 or Myc-S96A, HU for 3 h (4 mM in the methods, 2 mM in the legend); anti-Myc antibody overnight at 4 °C, protein G agarose; lysis buffer 0.1% NP-40, 50 mM Tris-HCl pH 7.4, 50 mM NaCl, 2 mM DTT; western blot. Background: In western blotting, separated proteins are transferred to a membrane and probed.

Assay [2] addresses T2, Myc-tagged WT-STN1 (human) (UniProt Q9H668).
T2 sequence: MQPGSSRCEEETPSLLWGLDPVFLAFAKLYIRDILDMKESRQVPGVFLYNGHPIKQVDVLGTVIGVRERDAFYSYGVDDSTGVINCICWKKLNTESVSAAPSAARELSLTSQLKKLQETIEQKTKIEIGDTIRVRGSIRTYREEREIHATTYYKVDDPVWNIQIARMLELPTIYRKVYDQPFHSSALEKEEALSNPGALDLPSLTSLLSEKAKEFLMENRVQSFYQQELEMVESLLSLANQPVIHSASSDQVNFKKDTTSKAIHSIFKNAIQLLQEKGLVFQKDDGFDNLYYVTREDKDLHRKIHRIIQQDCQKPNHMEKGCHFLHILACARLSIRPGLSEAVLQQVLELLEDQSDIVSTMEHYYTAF
The description is as above.

In assay [3] the target is T3, TEN1-His6 (co-expressed in Expi293F) (human) (UniProt Q86WV5).
T3 sequence: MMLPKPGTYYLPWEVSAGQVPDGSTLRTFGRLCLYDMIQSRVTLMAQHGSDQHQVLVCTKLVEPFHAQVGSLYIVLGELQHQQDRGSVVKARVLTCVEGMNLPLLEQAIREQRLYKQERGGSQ
As to the kind of experiment: co-purification (Ni-NTA, anti-Flag M2 affinity, size-exclusion chromatography); Flag-CTC1 and STN1-TEN1-His6 plasmids co-transfected into Expi293F; extract through Ni2+ NTA-agarose, anti-Flag M2 and Superdex 200 increase 10/300 GL; SDS-PAGE, Coomassie blue. (SEC sorts molecules by how far they enter the pores of the column.)

The target of assay [4] is T4, Flag-CTC1 (co-expressed in Expi293F) (human) (UniProt Q2NKJ3).
T4 sequence: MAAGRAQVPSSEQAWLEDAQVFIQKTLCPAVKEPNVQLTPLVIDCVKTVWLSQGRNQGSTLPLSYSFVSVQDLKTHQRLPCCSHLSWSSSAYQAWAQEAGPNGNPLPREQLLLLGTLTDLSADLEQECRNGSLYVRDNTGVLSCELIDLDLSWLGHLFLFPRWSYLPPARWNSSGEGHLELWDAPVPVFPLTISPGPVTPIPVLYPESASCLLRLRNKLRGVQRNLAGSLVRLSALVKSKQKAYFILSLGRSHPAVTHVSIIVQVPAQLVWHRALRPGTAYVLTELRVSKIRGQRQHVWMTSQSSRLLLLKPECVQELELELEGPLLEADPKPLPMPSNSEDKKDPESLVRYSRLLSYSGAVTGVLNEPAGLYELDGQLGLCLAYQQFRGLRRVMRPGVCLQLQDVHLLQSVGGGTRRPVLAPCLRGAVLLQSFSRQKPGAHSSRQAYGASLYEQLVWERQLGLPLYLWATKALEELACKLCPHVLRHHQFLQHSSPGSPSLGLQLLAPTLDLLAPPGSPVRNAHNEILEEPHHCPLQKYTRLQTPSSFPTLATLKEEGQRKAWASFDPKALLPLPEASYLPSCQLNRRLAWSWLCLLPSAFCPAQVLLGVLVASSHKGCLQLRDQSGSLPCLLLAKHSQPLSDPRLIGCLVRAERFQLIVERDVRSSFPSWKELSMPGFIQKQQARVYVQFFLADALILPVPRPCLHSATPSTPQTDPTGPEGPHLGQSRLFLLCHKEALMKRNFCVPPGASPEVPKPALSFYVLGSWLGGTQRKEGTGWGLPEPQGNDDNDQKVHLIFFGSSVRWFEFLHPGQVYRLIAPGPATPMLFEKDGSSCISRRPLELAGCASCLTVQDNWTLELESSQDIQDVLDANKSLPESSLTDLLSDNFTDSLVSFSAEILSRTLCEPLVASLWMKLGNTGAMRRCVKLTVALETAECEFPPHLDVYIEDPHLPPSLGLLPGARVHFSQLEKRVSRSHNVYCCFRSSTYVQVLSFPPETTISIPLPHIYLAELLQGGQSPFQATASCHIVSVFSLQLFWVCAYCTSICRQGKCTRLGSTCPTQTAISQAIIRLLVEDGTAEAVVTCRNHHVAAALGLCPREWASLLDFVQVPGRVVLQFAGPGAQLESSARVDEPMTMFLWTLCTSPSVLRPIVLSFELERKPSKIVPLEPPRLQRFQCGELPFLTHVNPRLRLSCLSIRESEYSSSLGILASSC
The description is as above.

Turning to “RAD51 (in HEK293T lysate) (from UniProt Q06609 1-339)”, the binding result in assay [1] and in assay [2] was “binds” each time.

B1: Flag-CTC1 (co-expressed in Expi293F) (protein, UniProt Q2NKJ3 1-1217)
chain: MAAGRAQVPSSEQAWLEDAQVFIQKTLCPAVKEPNVQLTPLVIDCVKTVWLSQGRNQGSTLPLSYSFVSVQDLKTHQRLPCCSHLSWSSSAYQAWAQEAGPNGNPLPREQLLLLGTLTDLSADLEQECRNGSLYVRDNTGVLSCELIDLDLSWLGHLFLFPRWSYLPPARWNSSGEGHLELWDAPVPVFPLTISPGPVTPIPVLYPESASCLLRLRNKLRGVQRNLAGSLVRLSALVKSKQKAYFILSLGRSHPAVTHVSIIVQVPAQLVWHRALRPGTAYVLTELRVSKIRGQRQHVWMTSQSSRLLLLKPECVQELELELEGPLLEADPKPLPMPSNSEDKKDPESLVRYSRLLSYSGAVTGVLNEPAGLYELDGQLGLCLAYQQFRGLRRVMRPGVCLQLQDVHLLQSVGGGTRRPVLAPCLRGAVLLQSFSRQKPGAHSSRQAYGASLYEQLVWERQLGLPLYLWATKALEELACKLCPHVLRHHQFLQHSSPGSPSLGLQLLAPTLDLLAPPGSPVRNAHNEILEEPHHCPLQKYTRLQTPSSFPTLATLKEEGQRKAWASFDPKALLPLPEASYLPSCQLNRRLAWSWLCLLPSAFCPAQVLLGVLVASSHKGCLQLRDQSGSLPCLLLAKHSQPLSDPRLIGCLVRAERFQLIVERDVRSSFPSWKELSMPGFIQKQQARVYVQFFLADALILPVPRPCLHSATPSTPQTDPTGPEGPHLGQSRLFLLCHKEALMKRNFCVPPGASPEVPKPALSFYVLGSWLGGTQRKEGTGWGLPEPQGNDDNDQKVHLIFFGSSVRWFEFLHPGQVYRLIAPGPATPMLFEKDGSSCISRRPLELAGCASCLTVQDNWTLELESSQDIQDVLDANKSLPESSLTDLLSDNFTDSLVSFSAEILSRTLCEPLVASLWMKLGNTGAMRRCVKLTVALETAECEFPPHLDVYIEDPHLPPSLGLLPGARVHFSQLEKRVSRSHNVYCCFRSSTYVQVLSFPPETTISIPLPHIYLAELLQGGQSPFQATASCHIVSVFSLQLFWVCAYCTSICRQGKCTRLGSTCPTQTAISQAIIRLLVEDGTAEAVVTCRNHHVAAALGLCPREWASLLDFVQVPGRVVLQFAGPGAQLESSARVDEPMTMFLWTLCTSPSVLRPIVLSFELERKPSKIVPLEPPRLQRFQCGELPFLTHVNPRLRLSCLSIRESEYSSSLGILASSC
Consider B1, for which, in assay [3], the binding entry was “binds”.

B2: STN1 S96A (co-expressed in Expi293F) (protein, UniProt Q9H668 1-368)
chain: MQPGSSRCEEETPSLLWGLDPVFLAFAKLYIRDILDMKESRQVPGVFLYNGHPIKQVDVLGTVIGVRERDAFYSYGVDDSTGVINCICWKKLNTEAVSAAPSAARELSLTSQLKKLQETIEQKTKIEIGDTIRVRGSIRTYREEREIHATTYYKVDDPVWNIQIARMLELPTIYRKVYDQPFHSSALEKEEALSNPGALDLPSLTSLLSEKAKEFLMENRVQSFYQQELEMVESLLSLANQPVIHSASSDQVNFKKDTTSKAIHSIFKNAIQLLQEKGLVFQKDDGFDNLYYVTREDKDLHRKIHRIIQQDCQKPNHMEKGCHFLHILACARLSIRPGLSEAVLQQVLELLEDQSDIVSTMEHYYTAF
As to B2, the binding result in assay [4] and in assay [3] was “binds” each time.

B3: STN1 S96D (co-expressed in Expi293F) (protein, UniProt Q9H668 1-368)
chain: MQPGSSRCEEETPSLLWGLDPVFLAFAKLYIRDILDMKESRQVPGVFLYNGHPIKQVDVLGTVIGVRERDAFYSYGVDDSTGVINCICWKKLNTEDVSAAPSAARELSLTSQLKKLQETIEQKTKIEIGDTIRVRGSIRTYREEREIHATTYYKVDDPVWNIQIARMLELPTIYRKVYDQPFHSSALEKEEALSNPGALDLPSLTSLLSEKAKEFLMENRVQSFYQQELEMVESLLSLANQPVIHSASSDQVNFKKDTTSKAIHSIFKNAIQLLQEKGLVFQKDDGFDNLYYVTREDKDLHRKIHRIIQQDCQKPNHMEKGCHFLHILACARLSIRPGLSEAVLQQVLELLEDQSDIVSTMEHYYTAF
Turning to B3, the binding entry in assay [4] and in assay [3] was “binds” each time.

B4: STN1 wild type (co-expressed in Expi293F) (protein, UniProt Q9H668 1-368)
chain: MQPGSSRCEEETPSLLWGLDPVFLAFAKLYIRDILDMKESRQVPGVFLYNGHPIKQVDVLGTVIGVRERDAFYSYGVDDSTGVINCICWKKLNTESVSAAPSAARELSLTSQLKKLQETIEQKTKIEIGDTIRVRGSIRTYREEREIHATTYYKVDDPVWNIQIARMLELPTIYRKVYDQPFHSSALEKEEALSNPGALDLPSLTSLLSEKAKEFLMENRVQSFYQQELEMVESLLSLANQPVIHSASSDQVNFKKDTTSKAIHSIFKNAIQLLQEKGLVFQKDDGFDNLYYVTREDKDLHRKIHRIIQQDCQKPNHMEKGCHFLHILACARLSIRPGLSEAVLQQVLELLEDQSDIVSTMEHYYTAF
Consider B4, for which the binding result in assay [4] and in assay [3] was “binds” each time.
